Source: article PMC3376741
No constants are given. Whether binding was seen depends on the method and setting. In cells and extracts the contact can be indirect. Here binding means that the protein was enriched with, or labelled near, the bait; the list need not be complete. Each block holds one molecule with its values, some of them ahead of it.

Chains of the proteins cited; added tags and fusions are not shown. Lines headed by an entry give the natural chain unless they say otherwise; changes in a name come on top.
UniProt Q9VEM2: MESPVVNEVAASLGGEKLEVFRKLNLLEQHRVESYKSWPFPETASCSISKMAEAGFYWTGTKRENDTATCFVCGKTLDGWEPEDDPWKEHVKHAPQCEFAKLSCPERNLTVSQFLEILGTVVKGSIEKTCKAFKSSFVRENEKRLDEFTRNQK

Columns and labels:
Assay in all cases: affinity purification with mass spectrometry; PtA-tagged bait stably expressed in Drosophila cells (about 10^9 cells); extraction buffer 50 mM HEPES pH 7.5, 100 mM KAc, 50 mM KCl, 2 mM MgCl2, 2 mM EGTA, 0.1% NP-40, 5 mM DTT, 5% glycerol; rabbit IgG Dynabeads 4 h at 4°C; eluate analysed by LC-MS/MS
PtA::Borr (Drosophila) = target: T1, PtA::Borr (Drosophila) (UniProt Q9VLD6)
T1 sequence: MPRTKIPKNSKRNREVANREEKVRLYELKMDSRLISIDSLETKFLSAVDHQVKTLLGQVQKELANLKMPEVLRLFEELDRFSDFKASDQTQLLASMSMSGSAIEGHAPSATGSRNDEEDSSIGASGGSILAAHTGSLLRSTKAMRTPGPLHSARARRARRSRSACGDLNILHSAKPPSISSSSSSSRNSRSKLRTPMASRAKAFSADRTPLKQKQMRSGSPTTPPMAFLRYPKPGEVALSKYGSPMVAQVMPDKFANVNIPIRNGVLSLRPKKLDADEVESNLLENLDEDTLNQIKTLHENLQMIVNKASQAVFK

Borr::PtA (Drosophila) = target: T2, Borr::PtA (Drosophila) (UniProt Q9VLD6)
T2 sequence: T1 sequence

PtA::Shrb (Drosophila) = target: T3, PtA::Shrb (Drosophila) (UniProt Q8T0Q4)
T3 sequence: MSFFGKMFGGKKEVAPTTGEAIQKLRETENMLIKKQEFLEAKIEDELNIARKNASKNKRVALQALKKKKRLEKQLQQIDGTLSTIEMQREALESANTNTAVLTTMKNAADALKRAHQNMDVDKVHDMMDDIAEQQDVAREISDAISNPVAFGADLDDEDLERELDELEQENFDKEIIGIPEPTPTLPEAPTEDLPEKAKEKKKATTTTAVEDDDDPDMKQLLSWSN

[1] = target: T4, PtA::Borr (Drosophila), Q9VLD6; settings: remark: other sources report otherwise
T4 chain: T1 sequence

[2] = target: T5, Borr::PtA (Drosophila), Q9VLD6; settings: remark: other sources report otherwise
T5 chain: T1 sequence

binding (PtA::Borr (Drosophila)): binds | binding (Borr::PtA (Drosophila)): binds
Molecule: INCENP (Drosophila (endogenous in Dmel S2 cells))

Molecule: Deterin (Survivin) (from UniProt Q9VEM2)
binding (PtA::Shrb (Drosophila)): binds | binding (PtA::Borr (Drosophila)): binds | binding (Borr::PtA (Drosophila)): binds

binding (PtA::Borr (Drosophila)): binds | binding (Borr::PtA (Drosophila)): binds
B1: Shrb (Snf7) (protein, UniProt Q8T0Q4 1-226)
chain: T3 sequence

binding [1]: binds | binding [2]: binds
B2: Aurora B, Q9VKN7 1-329 (enzyme)
chain: MTLSRAKHANRNHLPHLLAKVPEEHQEPIKNMCLKMMSHDAYGQPYDWSPRDFEMGAHLGRGKFGRVYLARERHSHYLVAMKVMFKEELRKGCVQRQVLREIEIQSRLKHPHILRLLTWFHDESRIYLALEIASEGELFKHLRGAPNHRFDEPRSAKYTYQVANALNYCHLNNVIHRDLKPENILLTSTDDLKLADFGWSAHTPNNKRRTLCGTLDYLPPEMVDGNSYDDSVDQWCLGILCYEFVVGCPPFESNSTESTYSKIRRMEISYPSHLSKGCKELIGGLLRKESKGRITLVDVMTHYWVKAGMAERELQLQKRERGKENTARN

binding (PtA::Shrb (Drosophila)): binds
B3: Borr (protein, UniProt Q9VLD6 1-315)
chain: T1 sequence
